Laboratory results published in publication PMC6986439, “Sultiame pharmacokinetic profile in plasma and erythrocytes after single oral doses: A pilot study in healthy volunteers” (Pharmacology Research & Perspectives, 2020).

Tested on: erythrocytes
Experiment: In vitro competition studies with zonisamide and topiramate in whole blood
Assay type: in vitro ADME, human
Conditions: for capacity to displace sultiame from its erythrocyte binding sites: added at equimolar concentration to 20 mg/L of sultiame
Protocol: In addition, competition studies were performed with two other antiepileptic agents known for their affinity for CA (zonisamide and topiramate), added at equimolar concentration to 20 mg/L of sultiame. Similar ranges of inhibition constants for CA II were reported in the literature for these three substances.13 Samples (1 mL) were drawn before and at 2, 4, 6, 8, 10, 15, 20, 30, 45, 60, and 120 min after addition of the competitor. Sultiame, zonisamide, and topiramate concentrations were then analyzed. All samples were centrifuged at 18 620 g for 1 minutes at 4°C. Plasma, erythrocyte, and urine fractions were stored separately at − 80°C prior to analysis for a maximum of 9 months. For analysis, plasma and hemolyzed erythrocytes samples were subjected to protein precipitation with MeOH containing the internal‐standard sultiame D4 and quantified with the previously described HPLC‐MS/MS method, using matrix‐matched calibration and quality controls. The sultiame concentrations determined in erythrocytes were corrected for the 10% interstitial plasma remnant in the erythrocyte fraction after centrifugation.14

Row | SMILES | capacity to displace sultiame from its erythrocyte binding sites | effect of adding sultiame to a sample enriched with the competitor (translating into an increase in plasma level)
1 | CC1(C)O[C@@H]2[C@@H](CO[C@@]3(COS(N)(=O)=O)OC(C)(C)O[C@@H]23)O1 [topiramate] | limited capacity | 
2 | NS(=O)(=O)Cc1noc2ccccc12 [zonisamide] | limited capacity | clear efflux of zonisamide from erythrocytes
